Measurements published in paper doi:10.1101/192500 (bioRxiv, 2018).

Protein sequences, listed by entry. Tags and fused reporters are not part of them. Lines headed by an entry give the natural chain unless they say otherwise; changes in a name come on top.
UniProt P76506: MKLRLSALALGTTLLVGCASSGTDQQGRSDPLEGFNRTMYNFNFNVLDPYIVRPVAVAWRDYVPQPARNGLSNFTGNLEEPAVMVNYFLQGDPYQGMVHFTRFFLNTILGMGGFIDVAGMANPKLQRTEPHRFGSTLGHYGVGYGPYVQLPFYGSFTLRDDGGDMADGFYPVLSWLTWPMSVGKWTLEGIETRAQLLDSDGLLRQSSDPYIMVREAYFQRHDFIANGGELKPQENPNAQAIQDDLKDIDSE

Molecular target: MlaA 3G3P/mlaA* combination mutant-His (E. coli) (UniProt P76506)
Experiment: pull-down

B1: OmpC (wild type, from the chromosomal locus) (protein, UniProt P06996 22-367)
chain: AEVYNKDGNKLDLYGKVDGLHYFSDNKDVDGDQTYMRLGFKGETQVTDQLTGYGQWEYQIQGNSAENENNSWTRVAFAGLKFQDVGSFDYGRNYGVVYDVTSWTDVLPEFGGDTYGSDNFMQQRGNGFATYRNTDFFGLVDGLNFAVQYQGKNGNPSGEGFTSGVTNNGRDALRQNGDGVGGSITYDYEGFGIGGAISSSKRTDAQNTAAYIGNGDRAETYTGGLKYDANNIYLAAQYTQTYNATRVGSLGWANKAQNFEAVAQYQFDFGLRPSLAYLQSKGKNLGRGYDDEDILKYVDVGATYYFNKNMSTYVDYKINLLDDNQFTRDAGINTDNIVALGLVYQF
In the case of B1, the binding is reported as “binds”.

No constants are given. Whether binding was seen depends on the method and setting. In cells and extracts the contact can be indirect. A result given as binding can be weak or reduced; the word gives no strength.
